Laboratory results published in patent US20080146606A1, “NOVEL COMPOUNDS” (priority 2006, published 2008).
Some of these results come from one statement about several compounds together.

Target: T1, Recombinant human IKKβ (residues 5-756) (Homo sapiens, UniProt O14920)
T1 construct: Recombinant human IKKβ (residues 5-756); GST (C); made in house
T1 sequence (O14920 5-756): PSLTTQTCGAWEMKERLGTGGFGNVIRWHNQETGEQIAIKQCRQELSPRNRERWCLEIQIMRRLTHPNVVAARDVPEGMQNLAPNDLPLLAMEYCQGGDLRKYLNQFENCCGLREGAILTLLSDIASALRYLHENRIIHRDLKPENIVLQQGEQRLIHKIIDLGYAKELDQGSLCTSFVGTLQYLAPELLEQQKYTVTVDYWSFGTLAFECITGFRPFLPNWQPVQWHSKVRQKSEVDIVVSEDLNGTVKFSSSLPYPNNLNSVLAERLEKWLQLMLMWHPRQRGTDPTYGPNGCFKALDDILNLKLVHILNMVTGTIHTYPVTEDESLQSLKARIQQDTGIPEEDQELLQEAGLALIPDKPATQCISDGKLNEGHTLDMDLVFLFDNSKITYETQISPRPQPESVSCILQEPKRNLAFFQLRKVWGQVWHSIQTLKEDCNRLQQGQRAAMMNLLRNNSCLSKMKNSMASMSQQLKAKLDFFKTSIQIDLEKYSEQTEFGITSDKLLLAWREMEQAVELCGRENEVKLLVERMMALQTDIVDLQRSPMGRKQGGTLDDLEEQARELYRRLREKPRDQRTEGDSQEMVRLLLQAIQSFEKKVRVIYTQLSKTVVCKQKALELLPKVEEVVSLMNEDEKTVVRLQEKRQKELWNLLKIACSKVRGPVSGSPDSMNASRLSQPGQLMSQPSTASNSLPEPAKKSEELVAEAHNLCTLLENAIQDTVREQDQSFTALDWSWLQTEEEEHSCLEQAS
Experiment: IKK2 assay (TR-FRET)
Assay type: biochemical

| pIC50 potency against IKK2 | SMILES |
| --- | --- |
| ≥ 5.0 | CCC(O)CNS(=O)(=O)c1ccc(-c2ccnc3[nH]c(C)cc23)cc1 (stereo not drawn) [Example 252, N-(2-hydroxybutyl)-4-(2-methyl-1H-pyrrolo[2,3-b]pyridin-4-yl)benzenesulfonamide] |
| ≥ 5.0 | Cc1cc2c(-c3ccc(S(=O)(=O)N[C@H](CO)CC(C)C)cc3)ccnc2[nH]1 [Example 241, N-[(1S)-1-(hydroxymethyl)-3-methylbutyl]-4-(2-methyl-1H-pyrrolo[2,3-b]pyridin-4-yl)benzenesulfonamide] |
| ≥ 5.0 | CN(C)Cc1cc2c(-c3ccc(S(=O)(=O)NCCO)cc3)ccnc2[nH]1 [Example 258, 4-{2-[(dimethylamino)methyl]-1H-pyrrolo[2,3-b]pyridin-4-yl}-N-(2-hydroxyethyl)benzene-sulfonamide] |
| ≥ 5.0 | CC(O)C(C)(C)NS(=O)(=O)c1ccc(-c2ccnc3[nH]c(C(F)(F)F)cc23)cc1 (stereo not drawn) [Example 233, N-(2-hydroxy-1,1-dimethylpropyl)-4-[2-(trifluoromethyl)-1H-pyrrolo[2,3-b]pyridin-4-yl]benzenesulfonamide] |
| ≥ 5.0 | Cc1cc2c(-c3ccc(S(=O)(=O)NC(C)(C)C(C)O)cc3)ccnc2[nH]1 (stereo not drawn) [Example 249, N-(2-hydroxy-1,1-dimethylpropyl)-4-(2-methyl-1H-pyrrolo[2,3-b]pyridin-4-yl)benzenesulfonamide] |
| ≥ 5.0 | CC[C@@H](CO)NS(=O)(=O)c1ccc(-c2ccnc3[nH]c(C(F)(F)F)cc23)cc1 [Example 222, N-[(1S)-1-(hydroxymethyl)propyl]-4-[2-(trifluoromethyl)-1H-pyrrolo[2,3-b]pyridin-4-yl]benzenesulfonamide] |
| ≥ 5.0 | Cc1cc2c(-c3ccc(S(=O)(=O)N[C@@H](CO)C(C)C)cc3)ccnc2[nH]1 [Example 239, N-[(1R)-1-(hydroxymethyl)-2-methylpropyl]-4-(2-methyl-1H-pyrrolo[2,3-b]pyridin-4-yl)benzenesulfonamide] |
| ≥ 5.0 | Cc1cc2c(-c3ccc(S(=O)(=O)N[C@H](CO)C(C)C)cc3)ccnc2[nH]1 [Example 238, N-[(1S)-1-(hydroxymethyl)-2-methylpropyl]-4-(2-methyl-1H-pyrrolo[2,3-b]pyridin-4-yl)benzenesulfonamide] |

More lines, now with the values behind:

| SMILES | pIC50 potency against IKK2 |
| --- | --- |
| O=C(O)C(F)(F)F.O=S1(=O)CCC(NS(=O)(=O)c2ccc(-c3ccnc4[nH]c(C5CCC5)cc34)cc2)C1 (stereo not drawn) [Example 111, 4-(2-cyclobutyl-1H-pyrrolo[2,3-b]pyridin-4-yl)-N-(1,1-dioxidotetrahydro-3-thienyl)benzenesulfonamidetrifluoroacetate] | ≥ 5.0 |
| Cc1cc2c(-c3ccc(S(=O)(=O)NC4CCS(=O)(=O)C4)cc3)ccnc2[nH]1 (stereo not drawn) [Example 105, N-(1,1-Dioxidotetrahydro-3-thienyl)-4-(2-methyl-1H-pyrrolo[2,3-b]pyridin-4-yl)benzenesulfonamide] | ≥ 5.0 |
| CC(C)(C)OC(=O)Cc1cc2c(-c3ccc(S(N)(=O)=O)cc3)ccnc2[nH]1.O=C(O)C(F)(F)F [Example 13, 1,1-Dimethylethyl{4-[4-(aminosulfonyl)phenyl]-1H-pyrrolo[2,3-b]pyridin-2-yl}acetate trifluoroacetate] | ≥ 5.0 |
| O=C(O)C(F)(F)F.O=S(=O)(c1ccc(-c2ccnc3[nH]c(CNc4cccnc4)cc23)cc1)N1CCCC1 [Example 139, N-({4-[4-(1-Pyrrolidinylsulfonyl)phenyl]-1H-pyrrolo[2,3-b]pyridin-2-yl}methyl)-3-pyridinamine trifluoroacetate] | ≥ 5.0 |
| CN1CCC(N(C)S(=O)(=O)c2ccc(-c3ccnc4[nH]c(Cn5ccnn5)cc34)cc2)CC1 [Example 127, N-methyl-N-(1-methyl-4-piperidinyl)-4-[2-(1H-1,2,3-triazol-1-ylmethyl)-1H-pyrrolo[2,3-b]pyridin-4-yl]benzenesulfonamide] | ≥ 5.0 |
| CCCN(CC)Cc1cc2c(-c3ccc(S(=O)(=O)N4CCCC4)cc3)ccnc2[nH]1.O=C(O)C(F)(F)F [Example 30, N-ethyl-N-({4-[4-(1-pyrrolidinylsulfonyl)phenyl]-1H-pyrrolo[2,3-b]pyridin-2-yl}methyl)-1-propanamine trifluoroacetate] | ≥ 5.0 |
| NCc1cc2c(-c3ccc(S(=O)(=O)N4CCCC4)cc3)ccnc2[nH]1 [Example 104, ({4-[4-(1-Pyrrolidinylsulfonyl)phenyl]-1H-pyrrolo[2,3-b]pyridin-2-yl}methyl)amine] | ≥ 5.0 |
| O=C(O)C(F)(F)F.O=S(=O)(c1ccc(-c2ccnc3[nH]c(CCCCO)cc23)cc1)N1CCCC1 [Example 79, 4-{4-[4-(1-Pyrrolidinylsulfonyl)phenyl]-1H-pyrrolo[2,3-b]pyridin-2-yl}-1-butanol trifluoroacetate] | ≥ 5.0 |
| CC(C)(C)OC(=O)Cc1cc2c(-c3ccc(S(=O)(=O)NC4CCS(=O)(=O)C4)cc3)ccnc2[nH]1 (stereo not drawn) [Example 7, 1,1-Dimethylethyl[4-(4-{[(1,1-dioxidotetrahydro-3-thienyl)amino]sulfonyl}phenyl)-1H-pyrrolo[2,3-b]pyridin-2-yl]acetate] | ≥ 5.0 |
| O=C(O)C(F)(F)F.O=S(=O)(c1ccc(-c2ccnc3[nH]c(Cn4cnnc4)cc23)cc1)N1CCCC1 [Example 54, 4-[4-(1-pyrrolidinylsulfonyl)phenyl]-2-(4H-1,2,4-triazol-4-ylmethyl)-1H-pyrrolo[2,3-b]pyridine trifluoroacetate] | ≥ 5.0 |
| CC[C@H](CO)NS(=O)(=O)c1ccc(-c2ccnc3[nH]c(C(F)(F)F)cc23)cc1 [Example 221, N-[(1R)-1-(hydroxymethyl)propyl]-4-[2-(trifluoromethyl)-1H-pyrrolo[2,3-b]pyridin-4-yl]benzenesulfonamide] | ≥ 5.0 |
| CC(C)[C@H](CO)NS(=O)(=O)c1ccc(-c2ccnc3[nH]c(C4CC4)cc23)cc1 [Example 212, 4-(2-cyclopropyl-1H-pyrrolo[2,3-b]pyridin-4-yl)-N-[(1R)-1-(hydroxymethyl)-2-methylpropyl]benzenesulfonamide] | ≥ 5.0 |
| CN(C)S(=O)(=O)c1ccc(-c2ccnc3[nH]c(Cn4ccnn4)cc23)cc1 [Example 135, N,N-dimethyl-4-[2-(1H-1,2,3-triazol-1-ylmethyl)-1H-pyrrolo[2,3-b]pyridin-4-yl]benzenesulfonamide] | ≥ 5.0 |
| O=C(O)C(F)(F)F.O=S(=O)(NCCO)c1ccc(-c2ccnc3[nH]c(C(F)F)cc23)cc1 [Example 120, 4-[2-(difluoromethyl)-1H-pyrrolo[2,3-b]pyridin-4-yl]-N-(2-hydroxyethyl)benzenesulfon-amide trifluoroacetate] | ≥ 5.0 |
| Cc1cc2c(-c3ccc(S(=O)(=O)N(C)CCCN)cc3)ccnc2[nH]1.O=C(O)C(F)(F)F [Example 178, N-(3-aminopropyl)-N-methyl-4-(2-methyl-1H-pyrrolo[2,3-b]pyridin-4-yl)benzenesulfonamidetrifluoroacetate] | ≥ 5.0 |
| Cc1cc2c(-c3ccc(S(=O)(=O)N(C)C4CCS(=O)(=O)CC4)cc3)ccnc2[nH]1 [Example 103, N-(1,1-Dioxidotetrahydro-2H-thiopyran-4-yl)-N-methyl-4-(2-methyl-1H-pyrrolo[2,3-b]pyridin-4-yl)benzenesulfonamide] | ≥ 5.0 |
